Assay [1] addresses α7-GFP (α7 nicotinic acetylcholine receptor subunit tagged with GFP) (human) (UniProt P36544). The assay is described as follows: FRET or BRET; acceptor photobleaching (561 nm laser) on a confocal microscope; SH-SY5Y cells nucleofected with the two constructs at a 1:1 ratio, fixed 48 h after transfection; GFP donor, Cherry acceptor; FRET efficiency = 1 - (Dpre/Dpost).
The target in assay [2] is α7-Cherry (α7 nicotinic acetylcholine receptor subunit tagged with Cherry) (human) (UniProt P36544). The description is as above.

Sequences of proteins named here, by UniProt entry; tags and fusion partners are left off. Residues count along the entry.
UniProt P36544, residues 23-502: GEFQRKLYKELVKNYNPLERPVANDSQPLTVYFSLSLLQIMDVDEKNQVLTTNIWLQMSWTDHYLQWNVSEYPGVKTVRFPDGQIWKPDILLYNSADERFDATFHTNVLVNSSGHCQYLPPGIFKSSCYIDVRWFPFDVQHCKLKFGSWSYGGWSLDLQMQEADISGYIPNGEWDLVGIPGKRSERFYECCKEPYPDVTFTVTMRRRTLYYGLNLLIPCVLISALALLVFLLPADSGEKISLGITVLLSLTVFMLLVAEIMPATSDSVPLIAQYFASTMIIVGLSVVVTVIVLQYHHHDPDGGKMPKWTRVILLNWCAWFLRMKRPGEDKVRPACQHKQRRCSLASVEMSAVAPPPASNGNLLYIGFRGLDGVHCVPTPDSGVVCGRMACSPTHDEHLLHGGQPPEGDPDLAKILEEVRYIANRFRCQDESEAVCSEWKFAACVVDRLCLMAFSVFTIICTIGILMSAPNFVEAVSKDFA
UniProt Q494W8: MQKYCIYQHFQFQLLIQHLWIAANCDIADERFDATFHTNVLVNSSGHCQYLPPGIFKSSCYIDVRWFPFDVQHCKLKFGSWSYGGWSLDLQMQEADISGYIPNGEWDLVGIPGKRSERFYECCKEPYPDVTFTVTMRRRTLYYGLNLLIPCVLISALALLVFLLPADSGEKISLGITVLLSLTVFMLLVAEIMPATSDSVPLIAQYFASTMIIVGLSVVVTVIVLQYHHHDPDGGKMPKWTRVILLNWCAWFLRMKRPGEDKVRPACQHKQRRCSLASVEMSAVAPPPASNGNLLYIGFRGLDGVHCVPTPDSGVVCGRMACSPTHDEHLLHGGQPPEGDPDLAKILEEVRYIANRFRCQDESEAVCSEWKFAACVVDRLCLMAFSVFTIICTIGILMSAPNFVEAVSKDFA

No constants are given. Whether binding was seen depends on the method and setting. Binding seen in cells or lysates may run through a third protein. Some binding calls cover weakened binding; strength is not graded here.

Turning to “dupα7-Cherry (partial duplicated isoform of the human α7 nicotinic subunit tagged with Cherry) (from UniProt Q494W8 1-412)”, the binding result in assay [1] is listed as “binds”. As to “dupα7-GFP (partial duplicated isoform of the human α7 nicotinic subunit tagged with GFP) (from UniProt Q494W8 1-412)”, the binding entry in assay [2] was “binds”.
